Assay [1] has as its target T1, recombinant human Notch1 protein (human, UniProt P46531 1426-1731, limits assumed).
T1 construct: also called antigen
T1 sequence (looked up): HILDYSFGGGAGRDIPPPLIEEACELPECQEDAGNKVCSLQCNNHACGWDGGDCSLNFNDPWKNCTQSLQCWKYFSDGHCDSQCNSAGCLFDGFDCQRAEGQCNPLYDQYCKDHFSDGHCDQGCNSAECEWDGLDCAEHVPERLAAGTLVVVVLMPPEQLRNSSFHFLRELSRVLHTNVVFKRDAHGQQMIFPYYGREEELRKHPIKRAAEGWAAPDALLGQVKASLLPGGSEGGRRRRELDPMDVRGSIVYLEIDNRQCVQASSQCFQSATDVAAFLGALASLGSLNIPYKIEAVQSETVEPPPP
In words: ELISA of conditioned medium of HEK 293 cells co-transfected with the humanized heavy chain and the murine 52M51 light chain.

Assay [2] has as its target T1, recombinant human Notch1 protein. In words: ELISA of conditioned medium of HEK293 cells co-transfected with 52M51-H4 and the candidate humanized light chain.

No constants are given. Whether binding was seen depends on the method and setting. Some results given as binding are weak or reduced against the parent protein; the word gives no strength.

B1: 52M51-H4 humanized heavy chain co-expressed with the murine 52M51 light chain (antibody, human IgG2, V domains shown)
VH: QVQLVQSGAEVKKPGASVKISCKVSGYTLRGYWIEWVRQAPGKGLEWIGQILPGTGRTNYNEKFKGRVTMTADTSTDTAYMELSSLRSEDTAVYYCARFDGNYGYYAMDYWGQGTTVTVSS
VL: QAVVTQESALTTSPGETVTLTCRSSTGAVTTSNYANWVQEKPDHLFTGLIGGTNNRAPGVPARFSGSLIGDKAALTITGAQTEDEAIYFCALWYSNHWVFGGGTKLTVLG
Take B1: the binding entry in assay [1] is “binds”.

B2: humanized antibody 52M51H4L4 (antibody, human IgG2, lambda, V domains shown)
VH: B1 VH
VL: SQTVVTQEPSFSVSPGGTVTLTCRSSTGAVTTSNYANWYQQTPGQAPRTLIGGTNNRAPGVPDRFSGSILGNKAALTITGAQADDESDYYCALWYSNHWVFGGGTKLTVLG
notes: Heavy chain 52M51-H4 (human IgG2 constant region) with light chain 52M51 L4 (human IgLC1 constant region)
In the case of B2, in assay [2], the binding result is “binds”.

B3: humanized antibody 52M51H4L3 (antibody, human IgG2, lambda, V domains shown)
VH: B1 VH
VL: SQAVVTQEPSLTVSPGGTVTLTCRSSTGAVTTSNYANWFQQKPGQAPRTLIGGTNNRAPGVPARFSGSLLGGKAALTLSGAQPEDEAEYYCALWYSNHWVFGGGTKLTVLG
notes: Heavy chain 52M51-H4 (human IgG2 constant region) with light chain 52M51 L3 (human IgLC1 constant region); also called humanized variant of 52M51; ATCC PTA-9549
Take B3: in assay [2], the binding entry was “binds”.

The record behind these values is patent US20120213786A1 (ONCOMED PHARMACEUTICALS, published 2012).
